Results reported in patent US20220016079A1, “COMBINATION TREATMENT OF HIV INFECTIONS” (priority 2018, published 2022).
At least one compound was matched to its structure with a doubt left.

System: latent HIV-1 in 2D10 cells
Assay: HIV-1 reactivation in latent GFP-reporter 2D10 cells, Debio 1143 and other LRAs alone or in combination
Type: cell-based
Details: LRA at single predetermined concentration with Debio 1143, already at 2 μM Debio 1143, 48 h
Method: We compared the efficacy of Debio-1143 at reversing HIV-1 latency with that of other LRAs. We then analyzed the cytotoxicity of Debio-1143 with that of the other LRAs on 2D10 cells. Drug titration was conducted.
Methods: HIV-1 latent GFP-reporter 2D10 cells (100,000 cells/100 μL) were treated in triplicate for 48 h with increasing concentrations of either only Debio-1143 or the LRAs (2000 nM or 20000 nM), or with Debio 1143 (2000 nM or 20000 nM) in combination with the LRAs at a single predetermined concentration (see Table 2). HIV reactivation was analyzed via GFP expression by flow cytometry.

SMILES	degree of HIV reactivation in combination with Debio 1143
CN1C(=O)[C@@]23C[C@]4([C@]56C[C@@]78SS[C@@](CO)(C(=O)N7[C@H]5Nc5ccccc56)N(C)C8=O)c5ccccc5N[C@@H]4N2C(=O)[C@]1(CO)SS3 [chaetocin]	Except for DMSO at the lowest tested concentration and Chaetocin at both tested concentrations
Cc1[nH]c2ccccc2c1CCNCc1ccc(/C=C/C(=O)NO)cc1 [panobinostat]	high degrees of HIV reactivation
